Results are given in words; binding and its absence hold for the method and conditions named. In cells and extracts the contact can be indirect. Some results given as binding are weak or reduced against the parent protein; the word gives no strength.
Tests used:
[1] = target: T1, TET9 (Arabidopsis … 9) (Arabidopsis) (UniProt Q9M0B7); assay: co-immunoprecipitation with anti-FLAG M2 affinity gel, Western blot with anti-FLAG and anti-GFP antibodies
T1 sequence (looked up): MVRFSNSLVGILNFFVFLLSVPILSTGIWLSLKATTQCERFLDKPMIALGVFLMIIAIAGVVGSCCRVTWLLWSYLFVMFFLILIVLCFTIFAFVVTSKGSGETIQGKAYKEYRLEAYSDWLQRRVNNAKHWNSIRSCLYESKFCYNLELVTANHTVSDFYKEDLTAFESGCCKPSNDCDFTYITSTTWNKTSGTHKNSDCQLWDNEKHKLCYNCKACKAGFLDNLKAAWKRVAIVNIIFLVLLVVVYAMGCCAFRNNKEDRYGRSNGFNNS

[2] = target: T1, TET9 (Arabidopsis … 9) (Arabidopsis); assay: reciprocal co-immunoprecipitation in vivo, anti-FLAG M2 affinity gel, Western blot with anti-FLAG and anti-GFP

binding [1]: binds | binding [2]: binds
B1: TET8 (Arabidopsis … 8) (protein, UniProt Q8S8Q6 1-273, looked up)
chain: MARCSNNLVGILNFLVFLLSIPILAGGIWLSQKGSTECERFLDKPVIALGVFLMVVAIAGLIGSCCRVTWLLWVYLFVMFLLILLVFCITVFAFVVTNKGAGEAIEGKGYKEYKLGDYSTWLQKRVENGKNWNKIRSCLVESKVCSKLEAKFVNVPVNSFYKEHLTALQSGCCKPSDECGFEYVNPTTWTKNTTGTHTNPDCQTWDNAKEKLCFDCQSCKAGLLDNVKSAWKKVAIVNIVFLVFLIIVYSVGCCAFRNNKRDDSYSRTYGYKP

— US20200340003A1
